Test system: focal demyelination in the corpus callosum of adult mice
Assay: Lysolecithin (LPC) induced focal de/remyelination model in adult mice, oral administration in drinking water
Assay type: in vivo
Conditions: drugs daily in 5%-glucose drinking water; among groups; FIG. 4A
Protocol: We weighted and anesthetized 4 months old RjOrl: SWISS mice (Janvier) with isoflurane (induced at 3%, and maintained at 1.2-1.6%). We induced focal demyelinating lesions by injecting 0.5 μl of a solution of 1% lysolecithin (LPC, Sigma in 0.9% NaCl solution) into the corpus callosum. To do so, a glass-capillary connected to a 10 μl Hamilton syringe was fixed and oriented through stereotaxic apparatus (coordinates: 1 mm lateral, 1.3 mm rostral to Bregma, 1.7 mm deep to brain surface). Animals were left to recover for a few hours in a warm chamber. […] Mice was perfused at 2% cold paraformaldehyde (thermos fisher) at 7 DPI.
For in-vivo cryosections (14-μm thick) of lesions, immunohistochemistry was performed after 30 mn drying at RT in a moist chamber. For myelin staining, ethanol treatment (100%) was performed for 10 mn at RT. […]
We analyzed the lesions at 7 days post-lesion (7 dpl), when newly formed OLs have started to remyelinate the lesion in this model. […] We determined the effect of the drugs to promote oligodendrogenesis at the lesion site by combinatory immunodetection of Olig2, CC1 and Olig1, allowing to distinguish OPCs (Olig2^high/CC1^−/Olig1^nuclear-cyto cells) and three stages in OL differentiation: iOL1 (Olig2^high/CC1^high/Olig1^− cells), iOL2 (Olig2^high/CC1^high/Olig1^high-cyto cells), and mOL (Olig2^low/CC1^low/Olig1^low cells). […]

## CCCCOc1ccc(C(=O)CCN2CCCCC2)cc1.Cl [Sm5, Dyclonine hydrochloride]
  daily oral consumption of drinking water: did not find any significant changes

## Nc1nc(=O)c2c([nH]1)NCC(CNc1ccc(C(=O)N[C@@H](CCC(=O)O)C(=O)O)cc1)N2C=O.[Ca+2] (some centres unmarked) [Sm11, Calcium folinate]
  daily oral consumption of drinking water: did not find any significant changes
